Test results as given in publication PMC8060220, “Comparative study of hyperpure chlorine dioxide with two other irrigants regarding the viability of periodontal ligament stem cells” (Clinical Oral Investigations, 2020).

System: PDLSCs
Experiment: Impedimetry (xCELLigence), 10 min treatment, time course and viability
Type: cell-based, human
Settings: long-term
Method: The effect of irrigative agents on the viability of the PDLSC cells was assessed using the xCELLigence SP System (Roche Applied Science, Indianapolis, IN, USA), which monitors the cellular events by measuring electrical impedance across interdigitating gold microelectrodes integrated on the bottom of tissue culture plates (E-plates). The detected impedance is influenced by the viability and morphology of the attached cells on the surface of the electrodes. The presence of cells due to their insulating plasma membranes constrain the electrical current and lead to an increase in the electrode impedance. The impedance depends on the number of the attached cells and on the dimensional change of the attached cells on the electrodes. More cells attached to the electrode or spreading cause a larger increase in the impedance. The change in impedances represented as “cell index” (CI) which is a relative and dimensionless value. Briefly, the experimental protocol was as follows: to register the background value, 100 μL of culture medium was added to each well and impedance was recorded for 1 h to gain constant background curves of impedance. In the following step, PDLSCs were seeded in 10^5 cells/mL density. […] Normalized impedance to the control calculated by the integrated software (RTCA 1.2—Roche Applied Science, Indianapolis, IN, USA) was used for the statistical evaluation. […]

In the case of [O][Cl+][O-] [ClO2, chlorine dioxide], the “time at which consistent increase of the CI curve was detected” value (0.00025% ClO2) is reported as 30 h and the “time at which consistent increase of the CI curve was detected” value (0.0025% ClO2) is reported as 50 h.
